Paper PMC3758542
These are yes or no findings as the source states them, for the method shown. In cells and extracts the contact can be indirect. Some binding calls cover weakened binding; strength is not graded here. Where a sequence is shown, tags or fusion partners need not be part of it.

Target: T1, GFP-tagged Anillin N-terminal fragment (Ani1–409GFP) (UniProt Q9V4P1)
T1 sequence: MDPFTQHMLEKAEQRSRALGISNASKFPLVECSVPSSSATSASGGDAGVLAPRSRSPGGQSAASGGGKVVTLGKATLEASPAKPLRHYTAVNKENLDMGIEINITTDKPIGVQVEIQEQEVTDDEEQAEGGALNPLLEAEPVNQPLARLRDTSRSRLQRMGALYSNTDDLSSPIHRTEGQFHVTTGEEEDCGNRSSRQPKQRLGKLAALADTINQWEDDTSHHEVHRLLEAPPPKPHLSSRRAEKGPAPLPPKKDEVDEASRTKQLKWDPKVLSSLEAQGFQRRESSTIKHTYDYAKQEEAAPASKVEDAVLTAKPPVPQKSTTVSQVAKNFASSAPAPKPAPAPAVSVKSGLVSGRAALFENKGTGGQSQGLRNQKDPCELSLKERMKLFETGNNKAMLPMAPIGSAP
Assay: co-IP; GFP-Trap immunoprecipitation from total extract of D.Mel-2 cells co-transfected for 3 days; immunoblot with anti-GFP and anti-FLAG

binding: binds
B1: FLAG-tagged Syndapin (protein, UniProt Q9VDI1 1-494)
chain: MSHHSDDQLLQAGSDSFWEPGNYKRTTKRIEDGYKLCNDLQQLIQERADIEKGYAKSLRTWSKKWGELIEKGPEYGTTEAAWKGVLTESERISDVHMKIKDNLCNDVNSQIKTWQKENYHHTLMQIKERKDLEDLFKKAQKPWAKLLAKVEKAKADYHSACKTERSATNQERNANADSSLSPDQVKKMHDRVQKTKDQVQKCREKYEQAIAEITKYNSVYIEDMTSVFEKCQTFEKTRLQFFKEILFNVHSCLDLTKVQSLPQIYEEFSHTINNADQQKDLKWWSNNHGINMAMNWPSFVEYTEEFRDIAKGNKSKEALPAAPITLINQRPVAEDVHEYPQTNSLKKNTSTLSSVSSRASVKSEIATTQSSVTTSEAKTSAAVAGAATATAAATAASAASNRNSSVTNGNGKVDANPFDEEEEWDESDNVLVDNGEPGVPVKALYDYEGAESDELTFKQGDVFEKLEDEDEQGWCKGRMNGRVGLYPANYVETA
